# Source: patent publication US20230040736A1, “DINITROXIDE BIRADICAL COMPOUNDS AS POLARIZING AGENTS” (COMMISSARIAT A L'ENERGIE ATOMIQUE ET AUX ENERGIES …, priority 2017, published 2023)
# Experiment: MAS-DNP performance of biradical polarizing agents at 9.4 T (Table 1)
compound,measurement,value
CC1(C)C=C(C(=O)NC2CC(C)(C)N([O])C(C)(C)C2)C(C)(C)N1[O] [AsymPol],Buildup Time TB MAS,0.6 s
same,Buildup Time TB Static,1.0 s
same,DNP gain εB(MAS),30
same,DNP sensitivity εB · TB(MAS)−1/2,39 s^ −1/2
same,εon/off MAS,32
same,εon/off Static,11
